Results: article PMC9458744
Results are given in words; binding and its absence hold for the method and conditions named. In cells and extracts the contact can be indirect. Some entries that bind do so weakly or less than the wild type.

Sequences of proteins named here, by UniProt entry; tags and fusion partners are left off. A change or cut given only in a name is not applied to a line headed by its entry. A line that says so, or that is headed by a name, gives the form on record, which may keep a tag or linker.
4R0N-tau (P10636, form named): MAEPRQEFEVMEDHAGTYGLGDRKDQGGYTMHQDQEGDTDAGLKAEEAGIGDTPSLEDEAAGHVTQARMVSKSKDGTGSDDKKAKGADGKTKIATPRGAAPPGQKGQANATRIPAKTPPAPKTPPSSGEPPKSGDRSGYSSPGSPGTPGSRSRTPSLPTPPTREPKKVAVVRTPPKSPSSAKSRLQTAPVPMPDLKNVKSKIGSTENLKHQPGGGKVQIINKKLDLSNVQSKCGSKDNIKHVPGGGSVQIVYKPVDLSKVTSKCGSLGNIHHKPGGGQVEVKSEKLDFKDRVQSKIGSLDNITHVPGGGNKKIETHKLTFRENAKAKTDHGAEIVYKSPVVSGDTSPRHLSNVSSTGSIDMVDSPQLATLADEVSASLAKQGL

Biological target: 4R0N-tau (human) (UniProt P10636)
Test: co-IP; lysates of tsA-201 cells co-transfected with CaVβ3 and either 4R0N- or 4R1N-tau; co-IP buffer 150 mM NaCl, 20 mM HEPES, 0.5% triton X-100, pH 7.4; mouse anti-tau (Sigma T9450) or control mouse IgG 1.5 h at 4 °C, Protein G sepharose; Western blot with anti-tau and anti-CaVβ3; band intensities normalised to input

- binding: binds
Substance: CaVβ3 subunit (from UniProt P54287 1-484)
